Measurements as given in publication PMC7949146.
No constants are given. Whether binding was seen depends on the method and setting. Binding seen in cells or lysates may run through a third protein. Some entries that bind do so weakly or less than the wild type.

Sequences of proteins named here, by UniProt entry; tags and fusion partners are left off.
UniProt Q92547: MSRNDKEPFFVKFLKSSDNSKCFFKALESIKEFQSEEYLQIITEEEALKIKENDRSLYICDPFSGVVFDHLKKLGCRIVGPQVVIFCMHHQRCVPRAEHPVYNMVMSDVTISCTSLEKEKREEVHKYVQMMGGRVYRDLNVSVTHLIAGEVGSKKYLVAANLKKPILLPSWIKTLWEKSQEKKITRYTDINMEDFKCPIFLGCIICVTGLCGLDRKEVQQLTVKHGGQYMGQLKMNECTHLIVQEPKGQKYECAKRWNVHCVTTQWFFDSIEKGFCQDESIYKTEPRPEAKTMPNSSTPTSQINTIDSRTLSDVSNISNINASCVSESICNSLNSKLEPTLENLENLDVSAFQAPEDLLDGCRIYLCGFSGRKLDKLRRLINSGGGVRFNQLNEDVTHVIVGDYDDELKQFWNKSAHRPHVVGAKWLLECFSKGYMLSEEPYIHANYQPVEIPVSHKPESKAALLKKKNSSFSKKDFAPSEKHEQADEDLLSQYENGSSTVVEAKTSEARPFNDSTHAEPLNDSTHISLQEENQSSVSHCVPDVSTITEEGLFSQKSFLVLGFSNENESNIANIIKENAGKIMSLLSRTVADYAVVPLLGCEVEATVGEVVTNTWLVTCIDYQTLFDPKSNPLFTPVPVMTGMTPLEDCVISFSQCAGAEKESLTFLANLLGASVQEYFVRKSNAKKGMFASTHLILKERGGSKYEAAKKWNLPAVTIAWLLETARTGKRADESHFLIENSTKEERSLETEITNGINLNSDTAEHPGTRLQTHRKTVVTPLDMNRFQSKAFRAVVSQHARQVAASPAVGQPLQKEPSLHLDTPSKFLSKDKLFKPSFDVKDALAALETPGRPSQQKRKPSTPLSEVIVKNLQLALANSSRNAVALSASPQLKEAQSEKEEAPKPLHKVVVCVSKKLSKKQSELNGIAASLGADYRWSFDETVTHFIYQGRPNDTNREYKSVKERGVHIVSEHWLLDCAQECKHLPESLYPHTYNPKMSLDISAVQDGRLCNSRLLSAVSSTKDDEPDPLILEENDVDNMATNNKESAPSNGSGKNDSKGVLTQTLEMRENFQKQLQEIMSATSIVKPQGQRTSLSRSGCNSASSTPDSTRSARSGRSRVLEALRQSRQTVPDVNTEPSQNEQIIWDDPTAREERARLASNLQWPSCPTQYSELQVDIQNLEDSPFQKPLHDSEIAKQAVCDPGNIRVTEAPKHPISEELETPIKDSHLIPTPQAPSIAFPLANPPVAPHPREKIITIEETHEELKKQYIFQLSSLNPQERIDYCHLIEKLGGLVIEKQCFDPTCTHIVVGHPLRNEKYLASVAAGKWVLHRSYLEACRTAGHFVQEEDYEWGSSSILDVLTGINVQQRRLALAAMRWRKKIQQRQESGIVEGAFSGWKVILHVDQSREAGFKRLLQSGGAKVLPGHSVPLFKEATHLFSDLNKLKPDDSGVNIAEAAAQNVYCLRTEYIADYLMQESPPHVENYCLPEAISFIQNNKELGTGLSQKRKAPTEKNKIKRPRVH

Biological target: Topoisomerase IIβ-binding protein 1 (TopBP1) (UniProt Q92547)
Test: co-IP; U2OS or MCF10A cells infected with Ad-CMV or Ad-TopBP1 at the indicated MOI, HU 2 mM; coimmunoprecipitation with anti-TopBP1 antibody as in Figure 3C; immunoblot

B1: Rad9 (protein, UniProt Q99638 1-391)
chain: MKCLVTGGNVKVLGKAVHSLSRIGDELYLEPLEDGLSLRTVNSSRSAYACFLFAPLFFQQYQAATPGQDLLRCKILMKSFLSVFRSLAMLEKTVEKCCISLNGRSSRLVVQLHCKFGVRKTHNLSFQDCESLQAVFDPASCPHMLRAPARVLGEAVLPFSPALAEVTLGIGRGRRVILRSYHEEEADSTAKAMVTEMCLGEEDFQQLQAQEGVAITFCLKEFRGLLSFAESANLNLSIHFDAPGRPAIFTIKDSLLDGHFVLATLSDTDSHSQDLGSPERHQPVPQLQAHSTPHPDDFANDDIDSYMIAMETTIGNEGSRVLPSISLSPGPQPPKSPGPHSEEEDEAEPSTVPGTPPPKKFRSLFFGSILAPVRSPQGPSPVLAEDSEGEG
binding: binds
